This note sets out measurements from article PMC10073124.

For the assay, the target named is T1, Four and a half LIM domains 2 (FHL2) (mouse (endogenous in primary granulosa cells)) (UniProt O70433).
T1 sequence: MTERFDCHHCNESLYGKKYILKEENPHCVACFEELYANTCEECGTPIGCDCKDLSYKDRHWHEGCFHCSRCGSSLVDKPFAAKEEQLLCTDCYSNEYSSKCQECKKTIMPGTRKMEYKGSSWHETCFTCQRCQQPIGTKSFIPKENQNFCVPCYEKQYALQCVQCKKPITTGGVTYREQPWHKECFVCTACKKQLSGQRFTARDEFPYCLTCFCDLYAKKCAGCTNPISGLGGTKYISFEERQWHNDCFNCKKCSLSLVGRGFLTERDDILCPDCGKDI
The experiment in a line: co-IP; granulosa cell lysates incubated overnight with rabbit anti-FHL2 antibody or normal rabbit IgG; protein A/G agarose beads, 30 min at 4 °C; five washes with cell lysis buffer; western blot with anti-NF-κB and anti-AP-1 antibodies. A general note: A western blot detects proteins with antibodies after separation by electrophoresis.

Results are given in words; binding and its absence hold for the method and conditions named. Binding seen in cells or lysates may run through a third protein. Binding calls can cover weak binding; strength is not graded here.

As to NF-κB transcription factor, the binding result is recorded as “binds”.
